Data reported in US20100105622A1 (UNIVERSIDAD DE BARCELONA, published 2010).
Results are given in words; binding and its absence hold for the method and conditions named. Some results given as binding are weak or reduced against the parent protein; the word gives no strength.

B1: rsCD6, recombinant soluble ectodomain of human CD6 (amino acids D25 to E384, immature protein numbering) (receptor, UniProt P30203 25-384, looked up)
chain: DQLNTSSAESELWEPGERLPVRLTNGSSSCSGTVEVRLEASWEPACGALWDSRAAEAVCRALGCGGAEAASQLAPPTPELPPPPAAGNTSVAANATLAGAPALLCSGAEWRLCEVVEHACRSDGRRARVTCAENRALRLVDGGGACAGRVEMLEHGEWGSVCDDTWDLEDAHVVCRQLGCGWAVQALPGLHFTPGRGPIHRDQVNCSGAEAYLWDCPGLPGQHYCGHKEDAGAVCSEHQSWRLTGGADRCEGQVEVHFRGVWNTVCDSEWYPSEAKVLCQSLGCGTAVERPKGLPHSLSGRMYYSCNGEELTLSNCSWRFNNSNLCSQSLAARVLCSASRSLHNLSTPEVPASVQTVTIE
notes: range 25-384; Used as unpurified serum-free culture supernatant to coat wells in the gp120 ELISA; also called recombinant soluble CD6; rCD6
B2: nsCD6, natural soluble CD6 affinity-purified from pooled human plasma (receptor, UniProt P30203 18-402, looked up)
chain: HPSPAPPDQLNTSSAESELWEPGERLPVRLTNGSSSCSGTVEVRLEASWEPACGALWDSRAAEAVCRALGCGGAEAASQLAPPTPELPPPPAAGNTSVAANATLAGAPALLCSGAEWRLCEVVEHACRSDGRRARVTCAENRALRLVDGGGACAGRVEMLEHGEWGSVCDDTWDLEDAHVVCRQLGCGWAVQALPGLHFTPGRGPIHRDQVNCSGAEAYLWDCPGLPGQHYCGHKEDAGAVCSEHQSWRLTGGADRCEGQVEVHFRGVWNTVCDSEWYPSEAKVLCQSLGCGTAVERPKGLPHSLSGRMYYSCNGEELTLSNCSWRFNNSNLCSQSLAARVLCSASRSLHNLSTPEVPASVQTVTIESSVTVKIENKESRELMLL

Molecular target: T1, ALCAM (Activated Leukocyte Cell Adhesion Molecule, CD166), the CD6 ligand, on Raji B cells (human) (UniProt Q13740)
T1 sequence (looked up): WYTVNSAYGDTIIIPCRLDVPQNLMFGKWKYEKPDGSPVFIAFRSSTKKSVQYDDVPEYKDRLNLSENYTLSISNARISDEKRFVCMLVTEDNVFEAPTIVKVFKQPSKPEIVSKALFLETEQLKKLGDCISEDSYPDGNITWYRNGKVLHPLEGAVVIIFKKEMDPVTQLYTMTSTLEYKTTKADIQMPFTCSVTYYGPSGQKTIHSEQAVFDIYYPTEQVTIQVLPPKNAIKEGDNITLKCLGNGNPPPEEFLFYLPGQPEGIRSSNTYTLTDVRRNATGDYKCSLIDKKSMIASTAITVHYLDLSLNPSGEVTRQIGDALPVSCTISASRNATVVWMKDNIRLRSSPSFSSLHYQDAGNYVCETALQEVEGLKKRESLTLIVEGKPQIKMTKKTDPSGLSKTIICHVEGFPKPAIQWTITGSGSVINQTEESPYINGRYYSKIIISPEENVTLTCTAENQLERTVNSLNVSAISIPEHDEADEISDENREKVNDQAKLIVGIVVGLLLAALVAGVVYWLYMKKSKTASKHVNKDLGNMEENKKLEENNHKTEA
Test: flow cytometry, biotin-labeled protein on Raji cells, detected with streptavidin-Tricolor

| Binder | binding |
| --- | --- |
| B1 | binds |
| B2 | binds |
